No constants are given. Whether binding was seen depends on the method and setting. Binding seen in cells or lysates may run through a third protein. Some binding calls cover weakened binding; strength is not graded here.
Columns and labels:
[1] = target: recombinant CHI3L1 protein (rCHI3L1), P36222; experiment: co-IP; Gastric and breast cancer cells incubated with rCHI3L1 for 3 h; cell membrane proteins immunoprecipitated with anti-CHI3L1 or isotype IgG and analysed by western blotting; cells not treated with rCHI3L1 as controls; only the target purified; conditions: remark: other sources report otherwise
GST (glutathione S …) = target: GST (glutathione S transferase)-conjugated CHI3L1 protein, P36222; experiment: pull-down; Glutathione-Sepharose beads coupled with purified GST-CHI3L1 (or GST) incubated with solubilized membrane proteins of gastric and breast cancer cells for 1 h at 4 °C; washed with 50 mM HEPES-KOH, 150 mM NaCl, 1 mM MgCl2, 0.2% Triton-X-100, pH 7.2; 10% SDS-PAGE, Coomassie; differential band identified by mass spectrometry; only the target purified; conditions: remark: other sources report otherwise

binding [1]: binds | binding (GST (glutathione S …)): binds
B1: interleukin (IL)-13 receptor α2 chain (IL-13Rα2), Q14627 27-380 (receptor)
chain: DTEIKVNPPQDFEIVDPGYLGYLYLQWQPPLSLDHFKECTVEYELKYRNIGSETWKTIITKNLHYKDGFDLNKGIEAKIHTLLPWQCTNGSEVQSSWAETTYWISPQGIPETKVQDMDCVYYNWQYLLCSWKPGIGVLLDTNYNLFYWYEGLDHALQCVDYIKADGQNIGCRFPYLEASDYKDFYICVNGSSENKPIRSSYFTFQLQNIVKPLPPVYLTFTRESSCEIKLKWSIPLGPIPARCFDYEIEIREDDTTLVTATVENETYTLKTTNETRQLCFVVRSKVNIYCSDDGIWSEWSDKQCWEGEDLSKKTLLRFWLPFGFILILVIFVTGLLLRKPNTYPKMIPEFFCDT
